In patent US12281162 (LANOVA MEDICINES DEVELOPMENT, dated 2025):
Results are given in words; binding and its absence hold for the method and conditions named. Some entries that bind do so weakly or less than the wild type.

Amino acid sequences for entries named in this document (tags omitted).
UniProt Q9NZD1: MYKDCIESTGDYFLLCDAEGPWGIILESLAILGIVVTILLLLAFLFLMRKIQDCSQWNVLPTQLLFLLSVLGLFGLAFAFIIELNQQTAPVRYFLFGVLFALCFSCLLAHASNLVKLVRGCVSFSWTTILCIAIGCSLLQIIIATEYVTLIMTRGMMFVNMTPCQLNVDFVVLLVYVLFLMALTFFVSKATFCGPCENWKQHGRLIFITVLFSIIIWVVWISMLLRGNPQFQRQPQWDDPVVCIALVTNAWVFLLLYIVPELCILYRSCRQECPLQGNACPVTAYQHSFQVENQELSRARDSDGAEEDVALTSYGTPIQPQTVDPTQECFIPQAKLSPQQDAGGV

Target: human G-protein-coupled receptor family C group 5 member D (GPRC5D) (human) (UniProt Q9NZD1)
Experiment: FACS, CHO-K1/GPRC5D

| Binder | binding |
| --- | --- |
| 34-H2L2 (antibody, V domains shown, humanized 34D3H1, VH v2 x VL v2) VH: EVQLVESGGGLVKPGGSLRLSCAASGFTFSSYGMSWVRQTPGKGLEWVATISSGGSYTYYPDSVKGRFTISRDNAKNSLYLQMSSLRAEDTAVYYCARQGGDAMDYWGQGTLVTVSS VL: DIQMTQSPSSLSASVGDRVTITCRASQSINNNLHWYQQKPGKAPKLLIYYASQSISGIPSRFSGSGSGTDFTLTISSVQPEDFATYFCQQSNSRLTFGGGTKVEIK | binds |
| 34-H3L1 (antibody, V domains shown, humanized 34D3H1, VH v3 x VL v1) VH: EVHLVESGGGLVKPGGSLRLSCAASGFTFSSYGMSWVRQTPGKRLEWVATISSGGSYTYYPDSVKGRFTISRDNAKNSLNLQMSSLRAEDTAVYYCARQGGDAMDYWGQGTLVTVSS VL: DIQMTQSPSSLSASVGDRVTITCRASQSINNNLHWYQQKPGKAPKLLIYYASQSISGVPSRFSGSGSGTDFTLTISSLQPEDFATYYCQQSNSRLTFGGGTKVEIK | binds |
| 34-H3L4 (antibody, V domains shown, humanized 34D3H1, VH v3 x VL v4) VH: EVHLVESGGGLVKPGGSLRLSCAASGFTFSSYGMSWVRQTPGKRLEWVATISSGGSYTYYPDSVKGRFTISRDNAKNSLNLQMSSLRAEDTAVYYCARQGGDAMDYWGQGTLVTVSS VL: DIVLTQSPSSLSVSVGDRVTLTCRASQSINNNLHWYQQKPGKSPKLLIYYASQSISGIPSRFSGSGSGTDFTLTISSVQPEDFATYFCQQSNSRLTFGGGTKLEIK | binds |
| 34-H1L3 (antibody, V domains shown, humanized 34D3H1, VH v1 x VL v3) VH: EVQLVESGGGLVKPGGSLRLSCAASGFTFSSYGMSWVRQAPGKGLEWVSTISSGGSYTYYPDSVKGRFTISRDNAKNSLYLQMNSLRAEDTAVYYCARQGGDAMDYWGQGTLVTVSS VL: DIQLTQSPSSLSASVGDRVTITCRASQSINNNLHWYQQKPGKSPKLLIYYASQSISGIPSRFSGSGSGTDFTLTISSVQPEDFATYFCQQSNSRLTFGGGTKLEIK | binds |
| 37-H2L2 (antibody, V domains shown, humanized 37B9C4, VH v2 x VL v2) VH: EVQLVESGGGLVQPGGSLRLSCAASGFTFSDYWMNWVRQSPGKGLEWVAEIRLKSNNYATHYAESVKGRFTISRDNAKSSLYLQMNSLRAEDTAVYYCTRPLLWFRRYYAMDYWGQGTLVTVSS VL: DIQMTQSPSSLSASVGDRVTITCSASQGISNYLNWYQQKPGKTVKLLIYYTSSLHSGVPSRFSGSGSGTDYTLTISSLQPEDFATYYCQQYSKLPFTFGQGTKLEIK | binds |
| 58-H2L2 (antibody, V domains shown, humanized 58F9G10, VH v2 x VL v2) VH: QVQLVQSGAEVKKPGASVKVSCKASGYSFTGYYIHWVRQAPGQGLEWIGYISSYNAATSFNQKFKGRVTFTVDTSTSTVYMELSSLRSEDTAVYYCARTELRGPWFAYWGQGTLVTVSS VL: DTQMTQSPSSLSASVGDRVTITCSASSSVSYMNWYQQKPGKAPKRLIYDTSKLASGVPSRFSGSGSGTDYTLTISSLQPEDFATYYCQQWSNNPLTFGQGTKLEIK | binds |
| 58-H1L3 (antibody, V domains shown, humanized 58F9G10, VH v1 x VL v3) VH: QVQLVQSGAEVKKPGASVKVSCKASGYSFTGYYIHWVRQAPGQGLEWMGYISSYNAATSFNQKFKGRVTMTRDTSTSTVYMELSSLRSEDTAVYYCARTELRGPWFAYWGQGTLVTVSS VL: DTQLTQSPSSLSASVGDRVTMTCSASSSVSYMNWYQQKPGKAPKRLIYDTSKLASGVPSRFSGSGSGTDYTLTISSMQPEDFATYYCQQWSNNPLTFGQGTKLEIK | binds |
| 58-H4L1 (antibody, V domains shown, humanized 58F9G10, VH v4 x VL v1) VH: QVQLVQSGAEVKKPGASVKISCKASGYSFTGYYIHWVKQAPGQGLEWIGYISSYNAATSFNQKFKGRATFTVDTSTSTAYMEFSSLRSEDSAVYYCARTELRGPWFAYWGQGTLVTVSS VL: DIQMTQSPSSLSASVGDRVTITCSASSSVSYMNWYQQKPGKAPKLLIYDTSKLASGVPSRFSGSGSGTDFTLTISSLQPEDFATYYCQQWSNNPLTFGQGTKLEIK | binds |
| 58-H2L1 (antibody, V domains shown, humanized 58F9G10, VH v2 x VL v1) VH: QVQLVQSGAEVKKPGASVKVSCKASGYSFTGYYIHWVRQAPGQGLEWIGYISSYNAATSFNQKFKGRVTFTVDTSTSTVYMELSSLRSEDTAVYYCARTELRGPWFAYWGQGTLVTVSS VL: DIQMTQSPSSLSASVGDRVTITCSASSSVSYMNWYQQKPGKAPKLLIYDTSKLASGVPSRFSGSGSGTDFTLTISSLQPEDFATYYCQQWSNNPLTFGQGTKLEIK | binds |
| 58-H3L3 (antibody, V domains shown, humanized 58F9G10, VH v3 x VL v3) VH: QVQLVQSGAEVKKPGASVKVSCKASGYSFTGYYIHWVKQAPGQGLEWIGYISSYNAATSFNQKFKGRVTFTVDTSTSTVYMEFSSLRSEDTAVYYCARTELRGPWFAYWGQGTLVTVSS VL: DTQLTQSPSSLSASVGDRVTMTCSASSSVSYMNWYQQKPGKAPKRLIYDTSKLASGVPSRFSGSGSGTDYTLTISSMQPEDFATYYCQQWSNNPLTFGQGTKLEIK | binds |
| 58-H3L2 (antibody, V domains shown, humanized 58F9G10, VH v3 x VL v2) VH: QVQLVQSGAEVKKPGASVKVSCKASGYSFTGYYIHWVKQAPGQGLEWIGYISSYNAATSFNQKFKGRVTFTVDTSTSTVYMEFSSLRSEDTAVYYCARTELRGPWFAYWGQGTLVTVSS VL: DTQMTQSPSSLSASVGDRVTITCSASSSVSYMNWYQQKPGKAPKRLIYDTSKLASGVPSRFSGSGSGTDYTLTISSLQPEDFATYYCQQWSNNPLTFGQGTKLEIK | binds |
| 58-H4L3 (antibody, V domains shown, humanized 58F9G10, VH v4 x VL v3) VH: QVQLVQSGAEVKKPGASVKISCKASGYSFTGYYIHWVKQAPGQGLEWIGYISSYNAATSFNQKFKGRATFTVDTSTSTAYMEFSSLRSEDSAVYYCARTELRGPWFAYWGQGTLVTVSS VL: DTQLTQSPSSLSASVGDRVTMTCSASSSVSYMNWYQQKPGKAPKRLIYDTSKLASGVPSRFSGSGSGTDYTLTISSMQPEDFATYYCQQWSNNPLTFGQGTKLEIK | binds |
| 58-H2L3 (antibody, V domains shown, humanized 58F9G10, VH v2 x VL v3) VH: QVQLVQSGAEVKKPGASVKVSCKASGYSFTGYYIHWVRQAPGQGLEWIGYISSYNAATSFNQKFKGRVTFTVDTSTSTVYMELSSLRSEDTAVYYCARTELRGPWFAYWGQGTLVTVSS VL: DTQLTQSPSSLSASVGDRVTMTCSASSSVSYMNWYQQKPGKAPKRLIYDTSKLASGVPSRFSGSGSGTDYTLTISSMQPEDFATYYCQQWSNNPLTFGQGTKLEIK | binds |

More lines, now with the values ahead:

| binding | Binder |
| --- | --- |
| binds | 34-H3L3 (antibody, V domains shown, humanized 34D3H1, VH v3 x VL v3) VH: EVHLVESGGGLVKPGGSLRLSCAASGFTFSSYGMSWVRQTPGKRLEWVATISSGGSYTYYPDSVKGRFTISRDNAKNSLNLQMSSLRAEDTAVYYCARQGGDAMDYWGQGTLVTVSS VL: DIQLTQSPSSLSASVGDRVTITCRASQSINNNLHWYQQKPGKSPKLLIYYASQSISGIPSRFSGSGSGTDFTLTISSVQPEDFATYFCQQSNSRLTFGGGTKLEIK |
| binds | 34-H3L2 (antibody, V domains shown, humanized 34D3H1, VH v3 x VL v2) VH: EVHLVESGGGLVKPGGSLRLSCAASGFTFSSYGMSWVRQTPGKRLEWVATISSGGSYTYYPDSVKGRFTISRDNAKNSLNLQMSSLRAEDTAVYYCARQGGDAMDYWGQGTLVTVSS VL: DIQMTQSPSSLSASVGDRVTITCRASQSINNNLHWYQQKPGKAPKLLIYYASQSISGIPSRFSGSGSGTDFTLTISSVQPEDFATYFCQQSNSRLTFGGGTKVEIK |
| binds | 34-H2L4 (antibody, V domains shown, humanized 34D3H1, VH v2 x VL v4) VH: EVQLVESGGGLVKPGGSLRLSCAASGFTFSSYGMSWVRQTPGKGLEWVATISSGGSYTYYPDSVKGRFTISRDNAKNSLYLQMSSLRAEDTAVYYCARQGGDAMDYWGQGTLVTVSS VL: DIVLTQSPSSLSVSVGDRVTLTCRASQSINNNLHWYQQKPGKSPKLLIYYASQSISGIPSRFSGSGSGTDFTLTISSVQPEDFATYFCQQSNSRLTFGGGTKLEIK |
| binds | 34-H2L3 (antibody, V domains shown, humanized 34D3H1, VH v2 x VL v3) VH: EVQLVESGGGLVKPGGSLRLSCAASGFTFSSYGMSWVRQTPGKGLEWVATISSGGSYTYYPDSVKGRFTISRDNAKNSLYLQMSSLRAEDTAVYYCARQGGDAMDYWGQGTLVTVSS VL: DIQLTQSPSSLSASVGDRVTITCRASQSINNNLHWYQQKPGKSPKLLIYYASQSISGIPSRFSGSGSGTDFTLTISSVQPEDFATYFCQQSNSRLTFGGGTKLEIK |
| binds | 34-H1L4 (antibody, V domains shown, humanized 34D3H1, VH v1 x VL v4) VH: EVQLVESGGGLVKPGGSLRLSCAASGFTFSSYGMSWVRQAPGKGLEWVSTISSGGSYTYYPDSVKGRFTISRDNAKNSLYLQMNSLRAEDTAVYYCARQGGDAMDYWGQGTLVTVSS VL: DIVLTQSPSSLSVSVGDRVTLTCRASQSINNNLHWYQQKPGKSPKLLIYYASQSISGIPSRFSGSGSGTDFTLTISSVQPEDFATYFCQQSNSRLTFGGGTKLEIK |
| binds | 34-H1L2 (antibody, V domains shown, humanized 34D3H1, VH v1 x VL v2) VH: EVQLVESGGGLVKPGGSLRLSCAASGFTFSSYGMSWVRQAPGKGLEWVSTISSGGSYTYYPDSVKGRFTISRDNAKNSLYLQMNSLRAEDTAVYYCARQGGDAMDYWGQGTLVTVSS VL: DIQMTQSPSSLSASVGDRVTITCRASQSINNNLHWYQQKPGKAPKLLIYYASQSISGIPSRFSGSGSGTDFTLTISSVQPEDFATYFCQQSNSRLTFGGGTKVEIK |
| binds | 34-H2L1 (antibody, V domains shown, humanized 34D3H1, VH v2 x VL v1) VH: EVQLVESGGGLVKPGGSLRLSCAASGFTFSSYGMSWVRQTPGKGLEWVATISSGGSYTYYPDSVKGRFTISRDNAKNSLYLQMSSLRAEDTAVYYCARQGGDAMDYWGQGTLVTVSS VL: DIQMTQSPSSLSASVGDRVTITCRASQSINNNLHWYQQKPGKAPKLLIYYASQSISGVPSRFSGSGSGTDFTLTISSLQPEDFATYYCQQSNSRLTFGGGTKVEIK |
| binds | 58-H1L2 (antibody, V domains shown, humanized 58F9G10, VH v1 x VL v2) VH: QVQLVQSGAEVKKPGASVKVSCKASGYSFTGYYIHWVRQAPGQGLEWMGYISSYNAATSFNQKFKGRVTMTRDTSTSTVYMELSSLRSEDTAVYYCARTELRGPWFAYWGQGTLVTVSS VL: DTQMTQSPSSLSASVGDRVTITCSASSSVSYMNWYQQKPGKAPKRLIYDTSKLASGVPSRFSGSGSGTDYTLTISSLQPEDFATYYCQQWSNNPLTFGQGTKLEIK |
| binds | 58-H4L2 (antibody, V domains shown, humanized 58F9G10, VH v4 x VL v2) VH: QVQLVQSGAEVKKPGASVKISCKASGYSFTGYYIHWVKQAPGQGLEWIGYISSYNAATSFNQKFKGRATFTVDTSTSTAYMEFSSLRSEDSAVYYCARTELRGPWFAYWGQGTLVTVSS VL: DTQMTQSPSSLSASVGDRVTITCSASSSVSYMNWYQQKPGKAPKRLIYDTSKLASGVPSRFSGSGSGTDYTLTISSLQPEDFATYYCQQWSNNPLTFGQGTKLEIK |
